Experimental data published in PMC5354556.
These are yes or no findings as the source states them, for the method shown. In cells and extracts the contact can be indirect. A result given as binding can be weak or reduced; the word gives no strength. Where a sequence is shown, tags or fusion partners need not be part of it.

Biological target: T1, Arabidopsis thaliana Bax Inhibitor-1 (AtBI-1), full length, V5-tagged (Arabidopsis thaliana) (UniProt Q9LD45)
T1 sequence: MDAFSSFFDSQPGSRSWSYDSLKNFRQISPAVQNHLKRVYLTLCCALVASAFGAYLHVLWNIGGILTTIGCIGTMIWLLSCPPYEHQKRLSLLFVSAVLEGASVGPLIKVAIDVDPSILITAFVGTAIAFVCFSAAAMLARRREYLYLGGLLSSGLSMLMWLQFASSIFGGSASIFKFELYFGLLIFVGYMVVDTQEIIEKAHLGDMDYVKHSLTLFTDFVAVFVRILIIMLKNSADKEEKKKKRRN
Experiment: co-IP; total protein extracts of yeast W303 induced for 6 h to express PAP and V5-tagged AtBI-1 or AtBI-1∆C; V5 monoclonal antibody, protein A-Sepharose beads; blots with affinity purified PAP antibody and V5 antibody

| Substance | binding |
| --- | --- |
| pokeweed antiviral protein (PAP), precursor form (Phytolacca americana) | binds |
| pokeweed antiviral protein (PAP), mature form (Phytolacca americana) | no binding |
